Source: PubChem BioAssay AID1273 (Columbia University Molecular Screening Center, 2008)
The other results are listed elsewhere or left out. Shown are side measurements of this screen, not its main read-out; they come without a call. Most of these compounds were active or inconclusive in the main read-out, so they are no random draw.

assay: insulin gene promoter suppression in islet cells – imaging, TRM-6 cells (human fetal islet line), eGFP reporter, cell count, primary screen (AID 1273;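 also: cells exposed to compound for 48 h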); conditions: measured here: cell count, toxicity, at 2 µM, reporter expression induced with tamoxifen

SMILES	normalized cell count
Cc1nn2c(Nc3ccccc3)c3c(nc2c1-c1ccccc1)CCC3	224%
Nc1nc(SCC(=O)NC2CCCc3ccccc32)n[nH]1 (stereo not given)	152%
CCc1nnc(SCC(=O)Nc2ccc3c(c2)OCO3)o1	72.4%
Cc1nn(-c2ccccc2)c(Cl)c1/C=N/Nc1nc2ccccc2n1C	128%
Cc1noc(N)c1C(=O)Nc1ccc(F)c(Cl)c1	78%
CCCCOC(=O)CSc1n[nH]c(=O)[nH]c1=O	80%
COc1ccc2cc3[n+](cc2c1OC)CCc1cc2c(cc1-3)OCO2	129%
O=C(NC1(C(F)(F)F)OCCO1)c1ccc(F)cc1	155%
Cc1ccc(C(=O)C2=C(O)C(=O)N(c3ncccn3)C2c2ccc(Cl)cc2)o1 (stereo not given)	122%
CCc1nn(-c2ccccc2)c(N)c1C#N	162%
O=C(Nc1nc(-c2nc3ccccc3s2)cs1)c1ccco1	105%
Cc1cc(C)c(OCC(=O)Nc2ccc(NC(=O)c3ccco3)cc2)c([N+](=O)[O-])c1	76.3%
CCNc1nc(Oc2ccc(=O)[nH]n2)nc(N2CCOCC2)n1	97.7%
CNC(=O)Nc1cccc(C(F)(F)F)c1	130%
Cc1ccc2c(n1)CC(C)(C)C/C2=N\O	148%
O=C(NCCc1ccccc1)NC1CCCCC1	146%
Cc1nn(-c2ccccc2)c(C)c1C(=O)OCC(=O)N1CC(=O)Nc2ccccc21	85.6%
COc1ccc(S(=O)(=O)N2CCc3ccccc32)cc1C(=O)OCc1nnc(-c2ccccc2)o1	131%
O=C1CCCN1CCCNc1ncnc2c1[nH]c1ccc(Cl)cc12	112%
COC(=O)c1ccccc1NC(=O)C/C(C)=N/NC(=O)CC#N	101%
Cc1ccc(S(=O)(=O)N(C)CC(=O)Nc2cccc(C)n2)cc1	38.1%
COc1ccc(CCNC(=O)CCc2ccc(S(=O)(=O)NC(C)C)cc2)cc1	46.7%
Cc1oc(-c2ccccc2F)nc1CN1CCC(C(=O)NC2CCCc3ccccc32)CC1 (stereo not given)	49.9%

Ordered by molecular weight (descending): 3 of the compounds above.
SMILES	normalized cell count
Cc1nn(-c2ccccc2)c(Cl)c1/C=N/Nc1nc2ccccc2n1C	128%
CCNc1nc(Oc2ccc(=O)[nH]n2)nc(N2CCOCC2)n1	97.7%
Cc1noc(N)c1C(=O)Nc1ccc(F)c(Cl)c1	78%

Later entries.

SMILES	normalized cell count
N#Cc1c(NC(=O)CCn2cnc3ccccc3c2=O)oc(-c2ccccc2)c1-c1ccccc1	50.9%
Cc1ccc2c(c1)N(CC(=O)NC1CCCc3ccccc31)C(=O)CO2 (stereo not given)	104%
CCc1nnc(NC(=O)CSc2nc(C)c3c(c2C#N)CCCC3)s1	84.9%
Cc1ccc2nc(NC(=O)CN(C)S(=O)(=O)c3ccc(Br)s3)sc2c1	69.3%
C/C(Cl)=C\Cn1c(=O)c2c(nc3n2CCS3)n(C)c1=O	90.5%
CCc1nc(Nc2ccc3c(c2)OCCO3)c2oc3ccccc3c2n1	85.4%
O=C(NCc1cccs1)C12CC3CC(CC(C3)C1)C2	79.1%
O=C(O)c1ccc2c(c1)C(=O)N(C(Cc1ccc(O)cc1)C(=O)O)C2=O (stereo not given)	157%
CCCCN=c1sc(C(=O)OC)cc(=O)n1CCCC	171%
O=C(Nc1ccc2c(c1)CCC2)C1CCCO1 (stereo not given)	110%
CCCc1cc(-c2n[nH]c(=S)n2CC)cs1	110%
C=CCNc1nc(SCC=C)nc2ccsc12	111%
COc1cccc(-c2ccc(SCC(=O)c3ccccc3)nn2)c1	75.8%
COC(=O)c1c(NC(=O)CN2CCC3(O)CCCCC3C2c2cc(OC)ccc2OC)sc(C)c1C (stereo not given)	122%
CCn1c(=O)n(-c2ccc(Cl)cc2)c(=O)c2c3c(sc21)COC(C)(C)C3	65.7%
O=C(CSCc1ccc(Cl)cc1)Nc1cccc(C(=O)Nc2ccccc2C(=O)O)c1	153%
CCCCNC(=O)CCc1nc2cccnc2n1Cc1ccc(OC)cc1	83.8%
CCCCN(CCCC)C(=O)C[n+]1cccc(/C=N/O)c1	120%
O=C(CCC(=O)NNC(=O)Cc1ccccc1)NCc1ccccc1	115%
Cc1cc(=O)oc2cc(OCC(=O)OCC(=O)Nc3ccccc3C(C)C)ccc12	113%
Cc1ccc(/C=C/C(=O)NCc2ccccn2)o1	94.7%
CCc1nc2cc([N+](=O)[O-])c([N+](=O)[O-])cc2[nH]1	137%
COc1ccc(-c2cn[nH]c2N)c(OC)c1	84.8%

SMILES	normalized cell count
Cc1cc(C)cc(OCC(=O)N2N=C(C(F)(F)F)CC2(O)C(C)(C)C)c1 (stereo not given)	46.6%
O=C(Nc1nnc(-c2cccs2)s1)C1CC1	171%
CC(C)CSc1nsc(N)n1	81.4%
Cc1cc(N)n2ncc(-c3ccc(F)cc3)c2n1	178%
COc1ccc(CN(C2CCCC2)S(=O)(=O)c2ccc(-n3cnnn3)cc2)cc1	104%
O=C(NCCSc1ccccc1)c1cncc(Br)c1	134%
CCCC12CN3CCN(CC(C3)/C1=N\NC(=O)Nc1ccccc1)C2	0.44%
Cc1c(NC(=O)c2cnn3cccnc23)c(=O)n(-c2ccccc2)n1C	114%
O=C(O)[C@H]1CCCC[C@H]1C(=O)NCCNC(=O)[C@@H]1CCCC[C@@H]1C(=O)O	17.4%
COc1ccc(C(C)=O)cc1CSc1nc2cc(Cl)ccc2o1	94.6%
CCCNC(=O)OCCC12CC3CC(CC(C3)C1)C2	115%
O=C(Nc1cccc(F)c1)c1ccc(-c2ccccc2Cl)o1	104%
O=C(Cc1c2ccccc2nc2ccccc12)c1ccccc1	137%
CCOC(=O)c1cnc2c(ccc3ccccc32)c1NCCO	125%
N#Cc1ccsc1NC(=O)COc1ccc(-c2nnco2)cc1	97%
COc1ccc(NC(=O)c2cccnc2Nc2ccc(OC)cc2)cc1	70.7%
COc1cc(C(=O)Nc2cccc(-c3nc4cc(C)ccc4o3)c2)cc(OC)c1OC	117%
CCCCCn1nc(C)c(/C=N/NC(=O)c2ccoc2C)c1C	83.5%
CCN(CC)C(=O)Nc1ccc(C(=O)OC)cc1	234%
COCCN1C=C(C(=O)OC)C(c2ccc(OC)c(OC)c2)C(C(=O)OC)=C1	73.8%
C/C(=N\Nc1cc(C(F)(F)F)ccc1Cl)c1ccccc1O	169%
Cc1ccccc1C(=O)N1CCN(c2ccc(NC(=O)c3ccco3)cc2Cl)CC1	124%
COc1ccccc1C(=O)Oc1cc(N)n(S(=O)(=O)c2ccc(C)cc2)n1	81.3%

SMILES	normalized cell count
CC(NC(=O)c1ccccc1)c1ccc(Br)cc1 (stereo not given)	45.6%
COc1ccc(CCNc2oc(Cc3cccc4ccccc34)nc2C#N)cc1OC	28.7%
CCN(CC)CCCNC(=O)c1nn(-c2ccc(OC)cc2OC)c(=O)c2ccccc12	61.2%
COC(=O)Cc1[nH]n(-c2nc3ccccc3s2)c(=O)c1C(C)=Nc1ccc(C)cc1	126%
CC(C)(C)NC(=O)NC(=O)CN1CCN(c2ncc(C(F)(F)F)cc2Cl)CC1	101%
CCCCSc1ncc(C(=O)OCC)c(N)n1	160%
O=C1NC2=C(CCc3ccccc32)C(c2ccccc2)N1 (stereo not given)	104%
O=C(Cn1nc(-c2ccccc2)c2ccccc2c1=O)Nc1cccnc1	61.3%
CC(Sc1nnc(-c2ccc(O)cc2)o1)C(=O)Nc1cccc2ccccc12 (stereo not given)	30.9%
C(=Nc1ccc(Nc2ccccc2)cc1)c1ccc2ccccc2c1	70.8%
CCCOc1ccc(C2/C(=C(\O)c3c(C)[nH]c(C(=O)OC)c3C)C(=O)C(=O)N2CCN(C)C)cc1 (stereo not given)	59.6%
COc1ccccc1-c1nc(C#N)c(N2CCN(C(c3ccccc3)c3ccccc3)CC2)o1	70.9%
COc1ccc(CCNC(=O)CSc2ncn[nH]2)cc1	33.5%
Cc1ccc(S(=O)(=O)N(CC(=O)O)c2ccc(Cl)c(C(F)(F)F)c2)cc1	69.6%
COc1cc2c(cc1OC)C(C)N(C(C)=O)CC2 (stereo not given)	37.3%
O=C(Nc1ccccc1)N1CC=C(c2ccc(F)cc2)CC1	138%
COc1cc(C(=O)c2ccccc2)c(OC)cc1C(=O)Nc1ccc(O)cc1	104%
CCn1c(C)nc2cc(C(=O)N/N=C/c3ccc(O)cc3)ccc21	53%
COc1cccc(-n2nnnc2SCC(=O)NC2CCCC2)c1	100%
Cc1cc(C)nc(N2CCCC(C(=O)NCCc3ccc(F)cc3)C2)n1 (stereo not given)	67.5%
CCCc1c2ccccc2nc2ccccc12	122%
CCOC(=O)COn1c(=O)c[n+]([O-])c2ccccc21	24%
O=C(OCCCCN1C(=O)c2ccccc2C1=O)c1ccc(Br)o1	101%

Single values from the list:
CC(C)(C)NC(=O)NC(=O)CN1CCN(c2ncc(C(F)(F)F)cc2Cl)CC1 | normalized cell count: 101%
O=C(Cn1nc(-c2ccccc2)c2ccccc2c1=O)Nc1cccnc1 | normalized cell count: 61.3%
O=C(OCCCCN1C(=O)c2ccccc2C1=O)c1ccc(Br)o1 | normalized cell count: 101%
CCN(CC)CCCNC(=O)c1nn(-c2ccc(OC)cc2OC)c(=O)c2ccccc12 | normalized cell count: 61.2%
O=C1NC2=C(CCc3ccccc32)C(c2ccccc2)N1 (stereo not given) | normalized cell count: 104%
CCCOc1ccc(C2/C(=C(\O)c3c(C)[nH]c(C(=O)OC)c3C)C(=O)C(=O)N2CCN(C)C)cc1 (stereo not given) | normalized cell count: 59.6%

Next entries follow.

SMILES	normalized cell count
CCSc1nnc(NC(=O)C(C)(C)C)s1	117%
CNC(=O)CN(C#N)c1nc(N(C)C)nc(N(C)C)n1	86%
COc1cc(/C=C\C(=O)NCc2ccc3[nH]c(C)cc3c2)cc(OC)c1OC	115%
O=C(O)c1cnc2ccccc2n1	53.5%
CCC(C)Sc1nc2ccccc2c(=O)[nH]1 (stereo not given)	129%
O=C(NCc1ccc2c(c1)OCO2)C1(S(=O)(=O)c2ccccc2)CC1	155%
COc1ccc(NC(=O)C(c2ccc(OC)cc2)N(C)C(=O)CNC(C)=O)cc1 (stereo not given)	101%
Cc1nc(NCCc2ccccc2)c2oc3ccccc3c2n1	150%
CCc1nc2c(cnn2-c2ccc(Cl)cc2)c(=O)n1-c1ccc(OC)cc1	48.8%
c1ccc(-c2nc(-c3ccccn3)no2)cc1	126%
CC(C(=O)Nc1ccc(S(=O)(=O)N2CCOCC2)cc1)N(c1ccccc1)S(C)(=O)=O (stereo not given)	82.5%
Cc1ccccc1N1C(=O)C(Cl)=C(N2CCN(c3ccccc3)CC2)C1=O	73%
Cc1nn(C)cc1CNC(=O)c1cccc(Br)c1	137%
Cc1cc(C(=O)NCCCN(C)C)c2ccccc2n1	82.5%
O=C(Nc1nc(-c2ccc(S(=O)(=O)N3CCCCCC3)cc2)cs1)c1cccs1	74.3%
CC(C)C(=O)c1cc2c(cc1NC(=O)c1cccs1)OCCO2	86.1%
Cc1sc2ncnc(SCC(=O)NC3CC3)c2c1C	0.46%
CCc1nnc(NS(=O)(=O)c2ccc(NC(=O)c3cccc(Cl)c3)cc2)s1	193%
Cc1ccc(S(=O)(=O)NCC(=O)OCC(=O)Nc2cccc(S(=O)(=O)NC3=NCCCCC3)c2)cc1	63%
Cc1cc2c3c(ccc(C)c3n1)N=CN2c1ccccc1	122%
O=C(NCc1ccccn1)C(=O)NCc1ccccn1	107%
COc1ccc(OC)c(NC(=O)CN2CCC(C(=O)c3ccc(C)cc3)CC2)c1	214%
COc1ccc(C(=O)NCCN2CCOCC2)cc1OC	101%
